{"sequences": {"note": "Chains of the proteins cited; added tags and fusions are not shown. Lines headed by an entry give the natural chain unless they say otherwise; changes in a name come on top.", "UniProt P18054": "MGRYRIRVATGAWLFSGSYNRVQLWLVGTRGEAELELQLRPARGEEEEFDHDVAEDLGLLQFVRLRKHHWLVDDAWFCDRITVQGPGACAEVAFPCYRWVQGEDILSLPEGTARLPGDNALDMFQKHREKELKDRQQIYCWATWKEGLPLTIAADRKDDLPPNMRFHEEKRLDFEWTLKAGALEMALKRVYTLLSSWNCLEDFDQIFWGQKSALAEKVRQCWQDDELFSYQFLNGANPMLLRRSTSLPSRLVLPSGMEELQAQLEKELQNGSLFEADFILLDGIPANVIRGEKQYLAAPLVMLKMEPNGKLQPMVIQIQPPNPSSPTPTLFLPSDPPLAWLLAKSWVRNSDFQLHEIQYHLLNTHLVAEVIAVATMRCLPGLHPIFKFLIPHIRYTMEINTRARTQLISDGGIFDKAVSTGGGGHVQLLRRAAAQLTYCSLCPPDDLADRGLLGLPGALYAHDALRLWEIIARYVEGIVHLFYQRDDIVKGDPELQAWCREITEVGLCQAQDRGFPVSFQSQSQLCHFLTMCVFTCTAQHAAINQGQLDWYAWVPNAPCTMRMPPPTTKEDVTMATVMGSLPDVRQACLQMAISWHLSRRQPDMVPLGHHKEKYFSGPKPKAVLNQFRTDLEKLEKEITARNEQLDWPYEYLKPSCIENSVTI"}, "source": "PubChem BioAssay AID1671190", "about": "(National Center for Advancing Translational Sciences (NCATS), 2021)", "note": "Screen size: about 580,000 compounds; about 6,100 (1.1%) were called active. The inconclusive results got no clear call from the source; some entries with a clear call stand among them for comparison. Calls follow the shape of the dose curve; as a rule, active = well fitted inhibition curve with a large enough effect; inconclusive = small, poorly fitted or top-dose-only effect, or another doubt; inactive = no such curve, though single readings can be large or run the other way. Potencies of inconclusive entries are doubtful fits and often do not repeat. Potency is read from the fitted curve at half-maximal effect.", "data": [{"target": "Polyunsaturated fatty acid lipoxygenase ALOX12 (Homo sapiens) (UniProt P18054)", "assay": "Primary qHTS assay for inhibitors of human arachidonate 12S-lipoxygenase (ALOX12): Round 2", "conditions": "purified 12hLO, xylenol orange hydroperoxide absorbance; series mostly up to 108 µM", "summary_of_the_method": "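Purified human 12hLO (150 nM final) in 25 mM Hepes, 0.01% Triton X-100, pH 7.0 was preincubated 15 min at room temperature with compound. Then 40 uM arachidonic acid was added, 30 min. Hydroperoxide was read by Fe-XO absorbance ratio 573/405 nm.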", "values": [{"compound": "Nc1nc(CN2CCC(O)CC2)nc2ccccc12", "Potency": "inactive"}, {"compound": "CCOc1ccc(-c2csc(Cn3c(CN4CCN(C)CC4)nc4ccccc4c3=O)n2)cc1", "Potency": "inconclusive: 15.8 µM [inhibitor, partial curve]"}, {"compound": "COc1ccc2[nH]c(C)c(C(=O)CN3CCCC(C)C3)c2c1", "note": "(stereo not given)", "Potency": "inconclusive: 50.1 µM [inhibitor, partial curve, poor fit]"}, {"compound": "Cc1ccc(N2CCN(C(=O)c3nn(C)c4c3CCc3sccc3-4)CC2)c(C)c1", "Potency": "inconclusive: 3.16 µM [inhibitor, full curve, poor fit]"}, {"compound": "CC(C)CC(c1nnnn1Cc1ccco1)N1CCN(C2CCCC2)CC1", "note": "(stereo not given)", "Potency": "inconclusive: 126 µM [inhibitor, single point]"}, {"compound": "CC(C)(C)CC(C)(C)NC(=O)/C=C/C(=O)O", "Potency": "inconclusive: 112 µM [inhibitor, single point]"}, {"compound": "COc1cc(CC(=O)OCc2ccccc2Br)cc(OC)c1OC", "Potency": "inconclusive: 126 µM [inhibitor, single point]"}, {"compound": "CC(C)C[C@@H](COCc1ccc(Cl)cc1)N1CCN(C(=O)c2ccc(C(F)(F)F)cc2)CCC1=O", "Potency": "inconclusive: 44.7 µM [inhibitor, partial curve, poor fit]"}, {"compound": "Cc1ccc(C)c(NC(=O)CCNS(=O)(=O)c2ccc3[nH]c(=O)oc3c2)c1", "Potency": "inactive"}, {"compound": "COc1ccc(C(=O)N2CCn3c(nn(-c4ccc([N+](=O)[O-])cc4)c3=O)C2)cc1", "Potency": "inconclusive: 79.4 µM [inhibitor, single point]"}, {"compound": "NC(=O)c1ccccc1OCC(=O)Nc1ccc(S(=O)(=O)N2CCCCC2)cc1", "Potency": "inconclusive: 89.1 µM [inhibitor, single point]"}, {"compound": "O=C(N/N=C1\\CCCc2oc(C(=O)O)cc21)c1ccccc1", "Potency": "inactive"}, {"compound": "O=C(O)c1cc(-c2ccc3c(c2)OCO3)nc2ccccc12", "Potency": "inconclusive: 25.1 µM [inhibitor, partial curve, poor fit]"}, {"compound": "Cc1ccc(S(C)(=O)=O)cc1C(=O)Nc1cccc(S(=O)(=O)N2CCCCCC2)c1", "Potency": "inactive"}, {"compound": "CCOC(=O)c1cccc(NC(=O)N2CCC(CN3CCCCCC3)CC2)c1", "Potency": "inconclusive: 89.1 µM [inhibitor, partial curve, poor fit]"}, {"compound": "O=C(Nc1ccc2oc(-c3cccc(Cl)c3Cl)nc2c1)c1cccc(Br)c1", "Potency": "inconclusive: 50.1 µM [inhibitor, partial curve, poor fit]"}, {"compound": "C#CCNC(=O)c1nc(C(C)(C)C)c2ccccn12", "Potency": "inactive"}, {"compound": "C=CCN1C(=O)/C(=c2\\sc3nc(=O)c(Cc4ccc(OC)c(OC)c4)nn3c2=O)c2ccccc21", "Potency": "inconclusive: 5.01 µM [inhibitor, full curve, poor fit]"}, {"compound": "COc1ccc(/C=C/CN2CCCC(CO)(Cc3cccc(Cl)c3)C2)cc1", "note": "(stereo not given)", "Potency": "inconclusive: 126 µM [inhibitor, single point]"}, {"compound": "CCN1C(=O)[C@H]2[C@@H](c3ccc(C)cc3)N[C@]3(CCCN(CCC(C)C)C3=O)[C@H]2C1=O", "Potency": "inconclusive: 8.91 µM [inhibitor, full curve, poor fit]"}, {"compound": "COCCn1c(C)cc(/C=C2/NC(=O)N(c3cccc(Cl)c3)C2=O)c1C", "Potency": "inconclusive: 44.7 µM [inhibitor, partial curve, poor fit]"}, {"compound": "N/C(=N\\OC(=O)/C=C/c1ccccc1Cl)c1cccnc1", "Potency": "inconclusive: 126 µM [inhibitor, partial curve, poor fit]"}, {"compound": "O=C1Nc2c(c(=O)[nH]c(=O)n2-c2ccccc2)C(C(F)(F)F)(C(F)(F)F)N1", "Potency": "inconclusive: 141 µM [inhibitor, partial curve, poor fit]"}, {"compound": "O=C(O)c1cccc(N/N=C/c2cc(Br)cc(Br)c2O)c1", "Potency": "active: 44.7 µM"}, {"compound": "CC(C)CNS(=O)(=O)c1ccc(NC(=O)Cn2nc(-c3ccc(F)cc3)ccc2=O)cc1", "Potency": "inconclusive: 35.5 µM [inhibitor, partial curve, poor fit]"}, {"compound": "COc1cccc(CN2CCN(c3ncccn3)CC2)c1OC", "Potency": "inconclusive: 0.631 µM [inhibitor, full curve]"}, {"compound": "FC(F)Oc1ccc(NC(=S)NCc2ccco2)cc1Cl", "Potency": "inconclusive: 56.2 µM [inhibitor, partial curve, poor fit]"}, {"compound": "Cn1c(N)c(C(=O)NCc2ccccc2)sc1=S", "Potency": "inconclusive: 44.7 µM [inhibitor, partial curve, poor fit]"}, {"compound": "Cc1nc(NS(=O)(=O)c2ccccc2)sc1NC(=O)OCCN(C)C", "Potency": "inconclusive: 25.1 µM [inhibitor, partial curve, poor fit]"}, {"compound": "Cc1cnn(CCC(=O)N2C[C@@H](CO)[C@H](c3ccncc3)C2)c1", "Potency": "inactive"}, {"compound": "O=C(c1cccnc1)N1CCN(Cc2ccccc2Br)CC1", "Potency": "inconclusive: 0.355 µM [inhibitor, full curve, poor fit]"}, {"compound": "CN1CC(=O)N(C2CCCNCC2)Cc2c1ncnc2N1CCCC(F)C1", "note": "(stereo not given)", "Potency": "inconclusive: 3.59 µM [inhibitor, single point]"}, {"compound": "O=C(c1ccccc1)N1CCN(c2ccc([N+](=O)[O-])c(NCc3cccnc3)c2)CC1", "Potency": "inactive"}, {"compound": "CN(CCOc1ccccc1)C(=O)c1cnc2ccccc2n1", "Potency": "inactive"}, {"compound": "CC(C)(C)OC(=O)COc1ccc2c(-c3ccccc3)cc(=O)oc2c1", "Potency": "inactive"}, {"compound": "COc1cccc(NC(=O)c2ccc(-c3nc(COc4ccc(C)cc4)c(C)o3)cc2)c1", "Potency": "inactive"}, {"compound": "COc1ccccc1NC(CC(=O)c1ccccc1)C(=O)OCC(=O)c1ccc(C)c(C)c1", "note": "(stereo not given)", "Potency": "inactive"}, {"compound": "Cc1cc(C(=O)CCC(=O)NCC(=O)Nc2c(C)cccc2C)c(C)s1", "Potency": "inconclusive: 100 µM [inhibitor, partial curve, poor fit]"}, {"compound": "CN(C(=O)CSc1nnc(-c2cccs2)n1N)C1CCCCC1", "Potency": "inconclusive: 4.47 µM [inhibitor, full curve]"}, {"compound": "CCOC(=O)[C@H]1[C@H]2COc3ccc(OC)cc3[C@H]2N2C(=O)CNC(=O)[C@@]12C", "Potency": "inconclusive: 126 µM [inhibitor, single point]"}, {"compound": "O=C1C2C(c3ccccc3)CC=CC2[C@H](c2ccc(C(F)(F)F)cc2)N1Cc1ccccc1", "note": "(stereo not given in full)", "Potency": "inactive"}, {"compound": "CC(C)C[C@@H](CN1CCCC1CN1C(=S)NC[C@@H]1Cc1ccccc1)N1C[C@H](Cc2ccccc2)N(CC2CCCCC2)C1=S", "note": "(stereo not given in full)", "Potency": "inconclusive: 39.8 µM [inhibitor, partial curve, poor fit]"}, {"compound": "O=Cc1cc(Cl)c(O)c(Br)c1", "Potency": "inconclusive: 25.1 µM [inhibitor, partial curve, poor fit]"}, {"compound": "N=C1c2ccccc2CN1c1ccc(N2CCOCC2)c(S(=O)(=O)Nc2ccc(Cl)cc2)c1", "Potency": "inconclusive: 56.2 µM [inhibitor, partial curve, poor fit]"}, {"compound": "Cn1c(=O)[nH]c(=O)c2c1[nH]c(=S)n2CCCc1ccccc1", "Potency": "inconclusive: 4.47 µM [inhibitor, full curve, poor fit]"}, {"compound": "CCN1CCN(c2ccc(S(=O)(=O)N3CCOCC3)cc2NC(=O)C(C)Oc2ccc(Cl)cc2)CC1", "note": "(stereo not given)", "Potency": "inconclusive: 56.2 µM [inhibitor, single point]"}, {"compound": "CC(C)(CN1CCc2ccccc2C1)NS(=O)(=O)c1ccc(Cl)cc1", "Potency": "inconclusive: 39.8 µM [inhibitor, partial curve, poor fit]"}, {"compound": "COC(=O)c1cn(CC(=O)Nc2cccc(C(C)=O)c2)c2ccccc12", "Potency": "inconclusive: 50.1 µM [inhibitor, partial curve, poor fit]"}, {"compound": "O=C(c1nccc2ccccc12)N1CCc2c(nc(-c3ccc(F)cc3)[nH]c2=O)C1", "Potency": "inconclusive: 10 µM [inhibitor, full curve, poor fit]"}, {"compound": "OCC1(c2nc(C3CCOCC3)nn2-c2cccc3c2CCC3)CC1", "Potency": "inactive"}, {"compound": "C=CCSC(=S)NC1CCS(=O)(=O)C1", "note": "(stereo not given)", "Potency": "inactive"}, {"compound": "Cc1ccc(C)c(NC(=O)CCCN2C(=O)C(c3ccccc3)Oc3cccnc32)c1", "note": "(stereo not given)", "Potency": "inactive"}, {"compound": "C/C(=N\\NC(=O)CNC(=O)c1ccco1)c1ccc(Br)cc1", "Potency": "inconclusive: 126 µM [inhibitor, partial curve, poor fit]"}, {"compound": "CC(NC(=O)c1ccc(F)cc1)C1CC2CCC1C2", "note": "(stereo not given)", "Potency": "inactive"}, {"compound": "Cc1cc(C)c(C)c(S(=O)(=O)N2CCN(C(=O)CCc3c(C)nn(C)c3C)CC2)c1C", "Potency": "inactive"}, {"compound": "CCCCCCN1C[C@@H](n2cc(COC(=O)c3ccccc3)nn2)[C@H](O)C[C@@H]1c1ccc(OC)cc1", "Potency": "inconclusive: 126 µM [inhibitor, partial curve, poor fit]"}, {"compound": "N#Cc1cc(Sc2ccccn2)c([N+](=O)[O-])cc1C#N", "Potency": "inconclusive: 50.1 µM [inhibitor, partial curve, poor fit]"}, {"compound": "COc1ccc(CNC(=S)N/N=C(/C)c2ccccc2)cc1", "Potency": "inconclusive: 126 µM [inhibitor, single point]"}, {"compound": "COc1ccc(NC(=O)CSCC(=O)Nc2ccccc2N2CCCC2)cc1", "Potency": "inactive"}, {"compound": "O=C(NNc1nc2cc3c(cc2s1)OCO3)c1ccccc1", "Potency": "inconclusive: 50.1 µM [inhibitor, partial curve, poor fit]"}, {"compound": "C=CCOc1c2ccc(C(=O)NCc3ccc(C)cc3)cc2nn1C", "Potency": "inconclusive: 56.2 µM [inhibitor, single point]"}, {"compound": "Cc1ccc(Nc2nnc(SCC(=O)Nc3cccc(S(=O)(=O)NC4=NCCCCC4)c3)s2)c(C)c1", "Potency": "inactive"}, {"compound": "OCc1ccc(CN2Cc3[nH]cnc3C[C@H]2c2nc(-c3ccc4ccccc4c3)no2)o1", "Potency": "inactive"}, {"compound": "COC(=O)CSc1ccc2nnc(-c3ccc(F)cc3)n2n1", "Potency": "inconclusive: 35.5 µM [inhibitor, partial curve, poor fit]"}, {"compound": "Cc1ccc(C(=O)N2CCCC(n3cc(-c4nc(-c5ccccc5)no4)nn3)C2)s1", "note": "(stereo not given)", "Potency": "inconclusive: 56.2 µM [inhibitor, partial curve, poor fit]"}]}]}
